This is an account of results in PubChem BioAssay AID330 (DTP/NCI, 2004).

The list shows only some results of the screen, not a fair sample: it is rich in T/C values a quarter to a half above the control, in often repeated tests (any T/C) and in doses without a T/C. Further doses and runs are listed elsewhere. T/C: endpoint of the treated group in % of that of the vehicle group. Some entries give survivors of the animals treated and no T/C: the source holds a T/C of zero for them, seemingly a mark for toxic or unscored doses. Some doses without a T/C left all or most animals alive at the check, yet need not have been tolerated: the source hardly ever lists a survival T/C far under the control, and the zero likely stands for such cases as well. Survivors were counted at the toxicity check, usually on the fifth day, unless a day is given; later deaths do not show. Schedules are NCI's codes, taken here to give the interval after Q, in days (D) or hours (H), and the number of doses after X. Some entries were tested several times; the values are given in rising order. Where survival is the endpoint, this PubChem deposit counts one and a half times the control or more as active, and values a quarter to a half above the control carry no call in these data; other NCI protocols may use other cut-offs. Signs of the kind (2×) give the number of equal values in this list.

This assay deals with P388 leukemia ip, CD2F1 mice, survival T/C. The experiment in a line: NCI In Vivo Anticancer Drug Screen. Data for tumor model P388 Leukemia (intraperitoneal) in CD2F1 (CDF1) mice. To be noted: T/C endpoint: median survival time, higher T/C = longer survival.
The mark [1] stands for this setting: dose: 200.0 mg/kg/injection, schedule: Q01DX009 (ip), vehicle: saline.
[2] abbreviates: dose: 120.0 mg/kg/injection, schedule: Q01DX005 (ip), vehicle: saline.
The mark [3] stands for this setting: dose: 240.0 mg/kg/injection, schedule: Q01DX005 (ip), vehicle: saline.
Setting [4] is: dose: 200.0 mg/kg/injection, schedule: Q01DX009 (ip), vehicle: saline with Tween-80.
Setting [5] is: dose: 400.0 mg/kg/injection, schedule: Q01DX009 (ip), vehicle: saline with Tween-80.
The mark [6] stands for this setting: dose: 50.0 mg/kg/injection, schedule: Q01DX009 (ip), vehicle: Klucel (hydroxypropylcellulose) (HPC).
[7] abbreviates: dose: 100.0 mg/kg/injection, schedule: Q01DX009 (ip), vehicle: Klucel (hydroxypropylcellulose) (HPC).
The mark [8] stands for this setting: dose: 200.0 mg/kg/injection, schedule: Q01DX009 (ip), vehicle: Klucel (hydroxypropylcellulose) (HPC).
[9] abbreviates: dose: 25.0 mg/kg/injection, schedule: Q01DX005 (ip), vehicle: Klucel (hydroxypropylcellulose) (HPC).
Where [10] appears, read: dose: 50.0 mg/kg/injection, schedule: Q01DX005 (ip), vehicle: Klucel (hydroxypropylcellulose) (HPC).
The mark [11] stands for this setting: dose: 100.0 mg/kg/injection, schedule: Q01DX005 (ip), vehicle: Klucel (hydroxypropylcellulose) (HPC).
Where [12] appears, read: dose: 200.0 mg/kg/injection, schedule: Q01DX005 (ip), vehicle: Klucel (hydroxypropylcellulose) (HPC).

Regarding `COc1ccccc1N=Nc1cccc[c]1[Hg][Cl]`, the T/C runs as follows: (dose: 18.0 mg/kg/injection, schedule: Q01DX009 (ip), vehicle: saline) 130 % of control; (dose: 36.0 mg/kg/injection, schedule: Q01DX009 (ip), vehicle: saline) 133 % of control. Besides, the survivor count is, setting by setting: (dose: 50.0 mg/kg/injection, schedule: Q01DX009 (ip), vehicle: saline) 1 of 6; (dose: 100.0 mg/kg/injection, schedule: Q01DX009 (ip), vehicle: saline) 0 of 6; under setting [1], 2 of 6.
Consider `Nc1nnc(N)n1-n1c(N)nnc1N`, for which the survivor count runs as follows: under setting [2], 2 of 6; under setting [3], 0 of 6.
Take `CCOc1ccc(Br)cc1/C=N/NS(=O)(=O)c1ccc(C)cc1`: the T/C is 128 % of control (dose: 118.0 mg/kg/injection, schedule: Q01DX009 (ip), vehicle: saline with Tween-80); 133 % of control (dose: 178.0 mg/kg/injection, schedule: Q01DX009 (ip), vehicle: saline with Tween-80); 142 % of control (dose: 188.0 mg/kg/injection, schedule: Q01DX009 (ip), vehicle: saline with Tween-80); 138 % of control under setting [4]; 147 % of control (2×) (dose: 266.0 mg/kg/injection, schedule: Q01DX009 (ip), vehicle: saline with Tween-80). Besides, the survivor count by setting is: under setting [5], 6 of 6; (dose: 600.0 mg/kg/injection, schedule: Q01DX009 (ip), vehicle: saline with Tween-80) 6 of 6.
With `CCC[CH2][Sn]([CH2]CCN(C)C)([CH2]CCN(C)C)[CH2]CCN(C)C`, the survivor count under setting [4] is recorded as 0 of 6.
For the compound `COc1ccc(CSC(=S)Nc2cc(Cl)c(Cl)cc2Cl)cc1`, the survivor count (dose: 200.0 mg/kg/injection, schedule: Q01DX009 (ip), vehicle: suspension in saline) is on record as 2 of 6.
On to `O=C(O)CSc1ncccc1Nc1ccc([N+](=O)[O-])cn1`, for which the survivor count under setting [1] is 4 of 6.
As to `COc1cc(C(=O)OC(C)CC2(c3ccccc3)C(=O)NC(=O)NC2=O)cc(OC)c1OC` (stereo not drawn), the survivor count under setting [4] is given as 6 of 6.
Regarding `C[n+]1ccccc1-c1nc(-c2cccc[n+]2C)nc(-c2cccc[n+]2C)n1`, the survivor count is, setting by setting: under setting [6], 5 of 6 and 6 of 6; under setting [7], 3 of 6; under setting [8], 0 of 6.
Consider `CCc1c(CNc2ccc(Cl)c(Cl)c2)ccc2nc(N)nc(N)c12`, for which the T/C was 127 and 130 % of control under setting [9]; 140 % of control (2×) under setting [10]. For the same compound, the survivor count is, setting by setting: under setting [11], 3 of 6 and 6 of 6; under setting [12], 2 of 6.
Regarding `C[C@]12CC[C@H](O)C[C@@]1(O)CC[C@@H]1[C@@H]2CC[C@]2(C)[C@@H](c3ccc(=O)oc3)C[C@H]3O[C@]132`, the survivor count (dose: 20.0 mg/kg/injection, schedule: Q01DX005 (ip), vehicle: saline + alcohol) is listed as 2 of 6.
As for `ClC1=C(Cl)C2(Cl)C3C4CC(C5OC45)C3N1C2(Cl)Cl` (stereo not drawn), the survivor count (dose: 400.0 mg/kg/injection, schedule: Q01DX001 (ip), vehicle: saline with Tween-80) is reported as 0 of 6.
`O=C(CN1CCCCCC1)Nc1ccc2c(c1)C(=O)c1ccc(NC(=O)CN3CCCCCC3)cc1C2=O`: the survivor count under setting [12] is reported as 6 of 6.
`CC(=O)OC1C=CC(=O)C1` (stereo not drawn): the survivor count is, setting by setting: (dose: 30.0 mg/kg/injection, schedule: Q01DX005 (ip), vehicle: saline with Tween-80) 1 of 6; (dose: 60.0 mg/kg/injection, schedule: Q01DX005 (ip), vehicle: saline) 0 of 6; under setting [2], 0 of 6; under setting [3], 0 of 6.
Consider `O=C(/C=C/c1c(-c2ccccc2)[nH]c2ccccc12)c1ccccc1O`, for which the survivor count (dose: 60.0 mg/kg/injection, schedule: Q01DX005 (ip), vehicle: saline with Tween-80) is 6 of 6 and the survivor count (dose: 120.0 mg/kg/injection, schedule: Q01DX005 (ip), vehicle: saline with Tween-80) is listed as 6 of 6.
Regarding `CCC1CN2CCc3cc(OC)c(OC)cc3C2CC1=O` (stereo not drawn), the T/C (dose: 150.0 mg/kg/injection, schedule: Q04DX003 (ip), vehicle: saline with Tween-80) was 126 % of control and the T/C (dose: 300.0 mg/kg/injection, schedule: Q04DX003 (ip), vehicle: saline with Tween-80) was 128 % of control. Also, the survivor count under setting [5] is 3 of 6.
Regarding `CC(C(=O)S)C(O)(c1ccccc1)c1ccccc1` (stereo not drawn), the survivor count was 0 of 6 (dose: 200.0 mg/kg/injection, schedule: Q04DX003 (ip), vehicle: Klucel (hydroxypropylcellulose) (HPC)) and 0 of 6 (dose: 400.0 mg/kg/injection, schedule: Q04DX003 (ip), vehicle: Klucel (hydroxypropylcellulose) (HPC)).
With `O=C(NO)c1coc2ccccc2c1=O`, the survivor count (dose: 240.0 mg/kg/injection, schedule: Q01DX005 (ip), vehicle: saline with Tween-80) is 0 of 6.
Take `COc1cc(N(CCCl)CCCl)ccc1NC(=O)c1ccccc1`: the T/C is 136 % of control (dose: 25.0 mg/kg/injection, schedule: Q04DX003 (ip), vehicle: saline sonified) and 131 % of control (dose: 25.0 mg/kg/injection, schedule: Q04DX003 (ip), vehicle: saline with Tween-80). The survivor count is 0 of 6 (dose: 100.0 mg/kg/injection, schedule: Q04DX003 (ip), vehicle: saline with Tween-80); 0 of 6 (dose: 200.0 mg/kg/injection, schedule: Q04DX003 (ip), vehicle: saline with Tween-80); 0 of 6 (dose: 400.0 mg/kg/injection, schedule: Q04DX003 (ip), vehicle: saline with Tween-80).
Take `CN(C)/C(=C(\CBr)C(=O)c1ccc(-c2ccccc2)cc1)c1ccccc1`: the survivor count under setting [11] is given as 0 of 6 and the survivor count under setting [12] is 0 of 6.
On to `Cc1ccc(CCn2c3c(c4cc(Cl)ccc42)CN(C)CC3)cn1`, for which the survivor count under setting [1] is on record as 0 of 6.
With `CC1=CC(=O)C(/C=C(\C)[N+](=O)[O-])=CC1=O`, the survivor count runs as follows: under setting [6], 0 of 6; under setting [7], 0 of 6; under setting [8], 0 of 6.
As for `Nc1ccccc1.O=C([CH-]C(=O)C(F)(F)F)c1ccccc1.O=C([CH-]C(=O)C(F)(F)F)c1ccccc1.O=C([CH-]C(=O)C(F)(F)F)c1ccccc1.O=C([CH-]C(=O)C(F)(F)F)c1ccccc1.[Eu+3]`, the survivor count under setting [6] is 6 of 6.
Turning to `Cc1c(COC(=O)NC2CCCCC2)c(COC(=O)NC2CCCCC2)c2c3ccccc3c3ccccc3n12`, the T/C is 128 % of control (dose: 200.0 mg/kg/injection, schedule: Q01DX009 (ip), vehicle: distilled water + Tween-80) and 132 % of control (dose: 400.0 mg/kg/injection, schedule: Q01DX009 (ip), vehicle: distilled water + Tween-80).
Take `[CH3][Sn]([CH3])([n]1ccnc1)[n]1ccnc1`: the T/C runs as follows: (dose: 12.5 mg/kg/injection, schedule: Q01DX005 (ip), vehicle: Klucel (hydroxypropylcellulose) (HPC)) 129 % of control; under setting [9], 128 and 129 % of control; under setting [10], 129 and 140 % of control. Also, the survivor count runs as follows: under setting [11], 0 of 5; under setting [12], 0 of 5.
Regarding `CN1N=C(C2=NN(C)C(=O)N(C)N2)NN(C)C1=O`, the survivor count is 0 of 5 under setting [11] and 0 of 5 under setting [12].
With `C=CC(=O)NC1(c2ccccc2)CN2CCC1CC2` (stereo not drawn), the survivor count by setting is: under setting [7], 0 of 6; under setting [8], 0 of 6; (dose: 400.0 mg/kg/injection, schedule: Q01DX009 (ip), vehicle: Klucel (hydroxypropylcellulose) (HPC)) 0 of 6.
With `CCN(CC)CCCC(C)Nc1ccc2cc(OC)ccc2n1` (stereo not drawn), the survivor count by setting is: (dose: 25.0 mg/kg/injection, schedule: Q01DX005 (ip), vehicle: saline) 1 of 5; (dose: 50.0 mg/kg/injection, schedule: Q01DX005 (ip), vehicle: saline) 0 of 5; (dose: 100.0 mg/kg/injection, schedule: Q01DX005 (ip), vehicle: saline) 0 of 5; (dose: 200.0 mg/kg/injection, schedule: Q01DX005 (ip), vehicle: saline) 0 of 5.
